The assay deals with ERAMOSA (ERA), yeast hybrid fusion (Antirrhinum majus). Description: two-hybrid; yeast two-hybrid, GAL4 system (pGADT7, pGBKT7), ERA as bait, strain AH109, 28 °C, medium lacking leucine, tryptophan, adenine and histidine with 1, 2 and 5 mM 3-AT.

These are yes or no findings as the source states them, for the method shown. Binding calls can cover weak binding; strength is not graded here.

On to “SQUAMOSA (SQUA), yeast two-hybrid fusion (from UniProt Q38742 1-248)”, for which the binding result is on record as “binds”.

The values above are taken from PMC5286501.
